For this data set the following is noted: one cycle = 21 days.

For the compound `CC[C@@]1(O)C(=O)OCc2c1cc1n(c2=O)Cc2cc3c(CN(C)C)c(O)ccc3nc2-1` [Topotecan, reference compound], the “median number of treatment cycles able to be given to patients” value is given as 5.0 treatment cycles. In the case of `CC[C@@]1(O)C(=O)OCc2c1cc1n(c2=O)Cc2c-1nc1ccccc1c2CC[Si](C)(C)C` [Karenitecin, (4S)-4-ethyl-4-hydroxy-11-[2-(trimethylsilyl)ethyl]-1H-pyrano[3′:4′:6,7]indolizino[1,2-b]quinoline-3,14(4H,12H)-dione], the “median number of treatment cycles able to be given to patients” value came to 6.0 treatment cycles.

Values taken from patent US10413538B2, “Administration of karenitecin for the treatment of platinum and/or taxane chemotherapy-resistant or -refractory advanced ovarian cancer” (priority 2013, dated 2019).
